Record: PubChem BioAssay AID1159578 (Peter MacCallum Cancer Centre, 2015)
The deposit covers about 18,000 reagents; this is a random part of them. Over the whole deposit, about 1,030 (5.7%) were called active. 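Inactive calls also include pools with fewer than 3300 nuclei, whose migration was not assessed.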 Raw values vary from plate to plate and are shown uncorrected. Unmarked entries are inactive. Further read-outs or replicates are left out here.

- Assay: 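Knock-downs that alter how fast lymphatic endothelial cells migrate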 (primary screen)
- Cell system: human lymphatic endothelial cells
- Reagent: siRNA pool against human genes, 40 nM
- Time to read-out: 48 h after transfection
- Detection: 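High-content imaging of dye-stained cells in a scratch assay measures filled wound area and nuclei per well; duplicate means given as ratio to mock and robust z-score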
- Direction: migration robust z-score: higher = faster migration into the scratch; nuclei per well: higher = more cells in the well
- Hit rule: 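Pools averaging fewer than 3300 nuclei are never called; remaining pools count as changed when migration robust z lies outside -2 to 2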
- Meaning of the calls: active = migration changed; inactive = no migration change, or too few cells

Gene | migration robust z-score | nuclei per well, duplicate mean
ZNF620 | 0.9 | 6566
GPI | -5.34 (active) | 4351
HSD17B8 | 0.83 | 6522
GAL | 0.74 | 6276
CST9 | -1.99 | 5206
CST1 | -5.96 | 0
KLHDC1 | -0.07 | 5908
QDPR | -0.62 | 6120
G2E3 | 0.36 | 6760
DPH6 | -0.06 | 5796
RAET1G | 0.43 | 5792
TIFA | 0.53 | 5590
PSMA1 | -1.74 | 5012
HS6ST2 | 1.33 | 5584
ATE1 | 0.88 | 6058
CCDC85B | -1.11 | 6090
HDDC3 | -1.36 | 5928
SAR1A | 0.44 | 5930
KIFC3 | -1.72 | 5870
RBBP8NL | -0.72 | 5256
CSE1L | -1.04 | 4492
PDGFA | 0.5 | 6167
UIMC1 | -1.57 | 4486
ALG14 | 1 | 5113
ATG10 | -1.42 | 5622
SETDB1 | -0.42 | 6324
DNM2 | -0.03 | 7432
SIM2 | -1.24 | 6085
DRC3 | -3.48 (active) | 4704
GAPVD1 | 0.32 | 7042
HK1 | -1.19 | 5628
ATP10D | -1.48 | 6294
RNF8 | -0.34 | 4672
CAPZA2 | 1.49 | 5798
MPZ | 0.36 | 5798
MORN1 | -0.44 | 4842
PAH | 1.3 | 5037
FBLN5 | -0.48 | 5501
TMEM119 | 1.15 | 5877
